Reference: the supplement of paper PMC6411743
± gives the standard deviation of the averaged measurements. The list shows a part of the results.

Amino acid sequences for entries named in this document (tags omitted). A change or cut given only in a name is not applied to a line headed by its entry.
UniProt Q9UQ35: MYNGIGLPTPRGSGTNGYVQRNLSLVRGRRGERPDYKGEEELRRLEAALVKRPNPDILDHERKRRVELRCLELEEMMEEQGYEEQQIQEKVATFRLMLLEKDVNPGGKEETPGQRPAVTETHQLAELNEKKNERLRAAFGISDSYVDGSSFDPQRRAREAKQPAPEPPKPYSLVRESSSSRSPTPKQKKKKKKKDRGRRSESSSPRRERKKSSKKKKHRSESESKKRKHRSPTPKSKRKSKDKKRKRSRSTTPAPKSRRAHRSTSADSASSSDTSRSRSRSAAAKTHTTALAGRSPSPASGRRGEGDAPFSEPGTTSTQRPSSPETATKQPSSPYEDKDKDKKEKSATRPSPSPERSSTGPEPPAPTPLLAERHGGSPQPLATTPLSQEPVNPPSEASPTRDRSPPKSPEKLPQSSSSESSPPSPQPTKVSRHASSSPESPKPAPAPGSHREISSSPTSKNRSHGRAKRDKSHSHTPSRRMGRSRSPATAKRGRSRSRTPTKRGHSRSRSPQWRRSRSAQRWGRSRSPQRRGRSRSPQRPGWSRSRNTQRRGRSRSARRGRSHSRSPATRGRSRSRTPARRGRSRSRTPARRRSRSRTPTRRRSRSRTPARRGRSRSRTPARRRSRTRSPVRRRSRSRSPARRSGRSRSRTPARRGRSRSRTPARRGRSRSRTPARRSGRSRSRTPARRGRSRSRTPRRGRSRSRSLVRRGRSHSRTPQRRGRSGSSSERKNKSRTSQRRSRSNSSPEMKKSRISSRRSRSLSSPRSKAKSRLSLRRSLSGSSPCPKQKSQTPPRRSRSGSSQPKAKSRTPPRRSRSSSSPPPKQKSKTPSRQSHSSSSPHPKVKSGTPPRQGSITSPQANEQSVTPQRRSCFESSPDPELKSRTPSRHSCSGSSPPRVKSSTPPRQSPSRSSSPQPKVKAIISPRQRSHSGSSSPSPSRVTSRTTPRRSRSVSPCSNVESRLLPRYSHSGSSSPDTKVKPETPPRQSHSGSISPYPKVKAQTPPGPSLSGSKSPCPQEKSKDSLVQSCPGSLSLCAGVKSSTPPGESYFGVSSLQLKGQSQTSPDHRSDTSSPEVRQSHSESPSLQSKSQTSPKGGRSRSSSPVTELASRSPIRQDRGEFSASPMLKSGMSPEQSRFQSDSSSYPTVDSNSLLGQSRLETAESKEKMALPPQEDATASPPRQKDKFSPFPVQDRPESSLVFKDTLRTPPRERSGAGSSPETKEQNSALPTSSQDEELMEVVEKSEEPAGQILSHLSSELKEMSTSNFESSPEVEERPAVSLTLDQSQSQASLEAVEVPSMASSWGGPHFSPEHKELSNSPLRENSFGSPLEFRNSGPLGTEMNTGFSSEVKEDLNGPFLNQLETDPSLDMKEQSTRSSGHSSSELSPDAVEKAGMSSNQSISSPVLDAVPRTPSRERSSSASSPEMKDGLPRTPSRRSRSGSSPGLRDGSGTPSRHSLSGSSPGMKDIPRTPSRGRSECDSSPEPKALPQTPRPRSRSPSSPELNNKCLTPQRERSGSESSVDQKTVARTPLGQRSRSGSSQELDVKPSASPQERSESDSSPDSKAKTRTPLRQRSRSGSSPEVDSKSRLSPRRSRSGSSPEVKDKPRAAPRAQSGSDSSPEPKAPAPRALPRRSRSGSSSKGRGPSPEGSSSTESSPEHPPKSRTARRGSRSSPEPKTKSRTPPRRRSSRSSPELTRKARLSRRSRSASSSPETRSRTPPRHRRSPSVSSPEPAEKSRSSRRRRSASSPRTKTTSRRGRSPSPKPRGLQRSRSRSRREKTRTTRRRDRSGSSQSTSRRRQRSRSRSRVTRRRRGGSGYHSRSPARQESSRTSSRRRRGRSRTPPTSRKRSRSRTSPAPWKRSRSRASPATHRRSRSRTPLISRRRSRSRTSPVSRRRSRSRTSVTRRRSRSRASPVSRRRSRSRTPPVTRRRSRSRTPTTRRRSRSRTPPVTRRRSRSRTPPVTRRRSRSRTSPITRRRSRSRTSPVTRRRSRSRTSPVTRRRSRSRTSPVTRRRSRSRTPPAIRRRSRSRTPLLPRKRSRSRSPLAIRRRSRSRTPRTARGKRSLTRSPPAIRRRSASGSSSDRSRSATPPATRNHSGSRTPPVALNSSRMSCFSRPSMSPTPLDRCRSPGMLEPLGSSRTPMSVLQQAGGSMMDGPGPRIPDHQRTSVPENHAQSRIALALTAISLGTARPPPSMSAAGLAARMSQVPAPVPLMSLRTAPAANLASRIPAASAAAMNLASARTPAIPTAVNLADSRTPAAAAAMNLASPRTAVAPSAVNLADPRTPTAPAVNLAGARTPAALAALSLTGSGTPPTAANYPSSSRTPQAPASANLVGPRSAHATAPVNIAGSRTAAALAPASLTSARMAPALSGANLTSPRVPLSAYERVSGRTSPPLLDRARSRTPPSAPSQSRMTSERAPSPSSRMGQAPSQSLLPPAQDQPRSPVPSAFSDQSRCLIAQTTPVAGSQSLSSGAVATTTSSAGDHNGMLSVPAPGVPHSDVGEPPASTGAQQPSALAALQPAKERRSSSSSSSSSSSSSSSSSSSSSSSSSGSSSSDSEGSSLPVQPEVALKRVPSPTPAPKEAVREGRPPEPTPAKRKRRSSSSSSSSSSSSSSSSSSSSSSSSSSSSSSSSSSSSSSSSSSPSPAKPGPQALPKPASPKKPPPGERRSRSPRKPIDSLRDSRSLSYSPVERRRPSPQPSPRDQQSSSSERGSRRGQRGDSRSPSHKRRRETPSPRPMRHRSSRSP
UniProt Q01130: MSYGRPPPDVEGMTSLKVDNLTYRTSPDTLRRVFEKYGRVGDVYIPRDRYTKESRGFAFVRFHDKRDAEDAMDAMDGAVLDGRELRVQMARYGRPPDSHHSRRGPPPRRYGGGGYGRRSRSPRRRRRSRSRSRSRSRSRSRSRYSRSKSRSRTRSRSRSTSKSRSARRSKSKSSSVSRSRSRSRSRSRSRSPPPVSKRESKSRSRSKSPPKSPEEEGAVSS
UniProt Q9Y2L5: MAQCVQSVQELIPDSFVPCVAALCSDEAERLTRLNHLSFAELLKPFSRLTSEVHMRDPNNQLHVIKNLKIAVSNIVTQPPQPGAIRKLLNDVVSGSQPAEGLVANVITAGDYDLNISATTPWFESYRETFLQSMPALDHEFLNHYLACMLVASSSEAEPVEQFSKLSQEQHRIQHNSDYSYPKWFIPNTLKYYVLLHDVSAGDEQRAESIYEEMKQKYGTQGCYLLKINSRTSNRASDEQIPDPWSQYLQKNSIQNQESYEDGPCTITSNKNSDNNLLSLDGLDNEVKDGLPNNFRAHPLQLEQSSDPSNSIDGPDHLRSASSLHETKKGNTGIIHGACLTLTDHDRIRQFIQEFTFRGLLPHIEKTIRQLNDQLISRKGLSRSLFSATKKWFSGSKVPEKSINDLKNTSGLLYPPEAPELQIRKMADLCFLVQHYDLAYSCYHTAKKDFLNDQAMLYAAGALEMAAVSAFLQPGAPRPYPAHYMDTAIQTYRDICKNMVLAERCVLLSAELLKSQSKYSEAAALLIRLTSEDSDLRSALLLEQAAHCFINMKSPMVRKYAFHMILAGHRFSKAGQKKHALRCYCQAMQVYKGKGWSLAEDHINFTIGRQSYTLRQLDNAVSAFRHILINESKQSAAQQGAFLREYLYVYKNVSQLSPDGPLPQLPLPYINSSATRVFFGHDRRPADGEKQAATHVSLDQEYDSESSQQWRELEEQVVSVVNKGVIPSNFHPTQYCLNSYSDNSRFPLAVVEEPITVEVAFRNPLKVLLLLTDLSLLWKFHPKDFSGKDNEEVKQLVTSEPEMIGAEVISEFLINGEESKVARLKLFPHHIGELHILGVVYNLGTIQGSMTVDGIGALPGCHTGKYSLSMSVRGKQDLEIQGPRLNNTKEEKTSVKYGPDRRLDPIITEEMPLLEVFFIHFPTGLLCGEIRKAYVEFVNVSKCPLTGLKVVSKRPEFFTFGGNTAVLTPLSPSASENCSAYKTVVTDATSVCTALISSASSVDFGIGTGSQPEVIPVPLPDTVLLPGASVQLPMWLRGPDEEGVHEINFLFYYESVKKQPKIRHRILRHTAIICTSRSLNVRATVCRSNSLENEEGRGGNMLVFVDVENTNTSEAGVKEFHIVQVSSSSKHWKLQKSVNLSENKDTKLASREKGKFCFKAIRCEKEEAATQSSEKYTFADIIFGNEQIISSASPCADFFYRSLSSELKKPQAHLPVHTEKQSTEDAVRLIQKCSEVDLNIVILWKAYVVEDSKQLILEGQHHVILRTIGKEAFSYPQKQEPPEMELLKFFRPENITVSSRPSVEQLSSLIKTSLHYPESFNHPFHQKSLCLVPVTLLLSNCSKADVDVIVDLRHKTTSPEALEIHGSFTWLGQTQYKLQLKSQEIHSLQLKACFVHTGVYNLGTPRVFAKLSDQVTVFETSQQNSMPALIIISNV
UniProt Q99700, whole entry: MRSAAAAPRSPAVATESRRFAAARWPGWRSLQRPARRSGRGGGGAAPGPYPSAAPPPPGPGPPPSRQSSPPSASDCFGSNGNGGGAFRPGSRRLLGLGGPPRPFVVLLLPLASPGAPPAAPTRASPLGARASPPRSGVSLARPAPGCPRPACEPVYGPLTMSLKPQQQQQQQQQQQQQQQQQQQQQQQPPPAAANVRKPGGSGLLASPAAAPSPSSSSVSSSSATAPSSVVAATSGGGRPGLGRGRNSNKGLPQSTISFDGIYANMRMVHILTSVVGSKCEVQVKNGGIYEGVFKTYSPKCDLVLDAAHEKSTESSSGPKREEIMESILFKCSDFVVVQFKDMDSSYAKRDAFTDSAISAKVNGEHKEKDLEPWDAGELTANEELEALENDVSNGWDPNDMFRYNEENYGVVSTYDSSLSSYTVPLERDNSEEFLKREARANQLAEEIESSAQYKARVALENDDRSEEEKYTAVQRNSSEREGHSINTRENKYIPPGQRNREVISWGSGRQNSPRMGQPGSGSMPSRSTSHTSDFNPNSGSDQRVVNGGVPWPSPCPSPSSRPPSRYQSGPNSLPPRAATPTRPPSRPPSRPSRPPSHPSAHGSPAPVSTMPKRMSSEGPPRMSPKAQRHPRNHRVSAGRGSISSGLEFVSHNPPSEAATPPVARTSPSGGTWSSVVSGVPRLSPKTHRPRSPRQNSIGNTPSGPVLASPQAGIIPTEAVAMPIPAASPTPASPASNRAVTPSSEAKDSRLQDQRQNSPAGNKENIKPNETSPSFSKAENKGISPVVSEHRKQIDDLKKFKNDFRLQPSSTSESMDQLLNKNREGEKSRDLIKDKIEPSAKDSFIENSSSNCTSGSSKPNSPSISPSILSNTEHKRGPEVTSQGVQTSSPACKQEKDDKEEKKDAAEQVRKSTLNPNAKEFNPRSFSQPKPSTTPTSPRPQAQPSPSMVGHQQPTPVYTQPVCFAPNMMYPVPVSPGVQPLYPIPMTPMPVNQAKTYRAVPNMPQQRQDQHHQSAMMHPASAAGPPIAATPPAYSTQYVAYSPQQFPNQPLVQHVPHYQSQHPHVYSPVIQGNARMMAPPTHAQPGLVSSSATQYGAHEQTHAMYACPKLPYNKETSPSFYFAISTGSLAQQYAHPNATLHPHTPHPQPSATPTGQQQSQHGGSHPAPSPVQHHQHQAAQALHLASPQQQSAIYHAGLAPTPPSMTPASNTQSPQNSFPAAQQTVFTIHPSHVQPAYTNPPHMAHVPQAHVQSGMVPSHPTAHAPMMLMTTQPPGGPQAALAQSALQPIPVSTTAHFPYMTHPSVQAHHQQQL
UniProt Q9HAD4: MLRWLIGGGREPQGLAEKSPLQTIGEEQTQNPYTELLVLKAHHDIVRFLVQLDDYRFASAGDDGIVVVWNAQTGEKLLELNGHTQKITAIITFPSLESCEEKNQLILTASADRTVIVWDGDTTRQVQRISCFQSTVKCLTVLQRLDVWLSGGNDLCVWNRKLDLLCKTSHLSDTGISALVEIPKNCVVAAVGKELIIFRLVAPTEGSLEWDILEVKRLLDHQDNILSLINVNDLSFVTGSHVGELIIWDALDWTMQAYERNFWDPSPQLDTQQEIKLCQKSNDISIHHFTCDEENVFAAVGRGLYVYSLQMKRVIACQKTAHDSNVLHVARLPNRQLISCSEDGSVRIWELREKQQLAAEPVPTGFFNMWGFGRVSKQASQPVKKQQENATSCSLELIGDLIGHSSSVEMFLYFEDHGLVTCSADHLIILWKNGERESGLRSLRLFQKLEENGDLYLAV

Compound: Nc1nc2c(ncn2[C@@H]2O[C@H](COP(=O)(O)OP(=O)(O)OP(=O)(O)O)[C@@H](O)[C@H]2O)c(=O)[nH]1 [guanosine triphosphate]
Test: NP40-soluble protein abundance relative to vehicle (solubility fold change) (ratio); higher = more soluble protein in presence of GTP
Protocol: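 Solubility proteome profiling in Jurkat crude lysate. Lysate was treated with Mg-GTP (0.1-10 mM) for 10 min at room temperature and 3 min at 37 °C, then solubilised with 0.8% NP40 and benzonase, followed by ultracentrifugation. Proteins were quantified by TMT10 LC-MS/MS; the value is the NP40-soluble abundance relative to the NP40-processed vehicle, from 3 independent experiments.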

Question: What does the source list for “I3L182 and related entries (UniProt Q9UQ35)”?
Answer: NP40-soluble protein abundance (concentration: 0.1mM): 1.03 ± 0.029; NP40-soluble protein abundance (concentration: 0.5mM): 1.07 ± 0.036; NP40-soluble protein abundance (concentration: 1mM): 1.179 ± 0.0078; NP40-soluble protein abundance (concentration: 2mM): 1.13 ± 0.069; NP40-soluble protein abundance (concentration: 4mM): 1.04 ± 0.11; NP40-soluble protein abundance (concentration: 6mM): 1.03 ± 0.1; NP40-soluble protein abundance (concentration: 8mM): 1.07 ± 0.17; NP40-soluble protein abundance (concentration: 10mM): 1.05 ± 0.21

Question: Which results are given for “J3KP15 and related entries (UniProt Q01130)”?
Answer: NP40-soluble protein abundance (concentration: 0.1mM): 1.02 ± 0.089; NP40-soluble protein abundance (concentration: 0.5mM): 1.06 ± 0.092; NP40-soluble protein abundance (concentration: 1mM): 1.19 ± 0.11; NP40-soluble protein abundance (concentration: 2mM): 1.08 ± 0.15; NP40-soluble protein abundance (concentration: 4mM): 1.11 ± 0.13; NP40-soluble protein abundance (concentration: 6mM): 1.12 ± 0.13; NP40-soluble protein abundance (concentration: 8mM): 1.26 ± 0.11; NP40-soluble protein abundance (concentration: 10mM): 1.16 ± 0.098

Question: “J3QQJ5 and related entries (UniProt Q9Y2L5)” was tested. Which NP40-soluble protein abundance (concentration: 0.1mM) did it give?
Answer: The NP40-soluble protein abundance was 1.09 ± 0.062.

Question: And the NP40-soluble protein abundance (concentration: 0.5mM)?
Answer: Its NP40-soluble protein abundance is 1.1 ± 0.12.

Question: And the NP40-soluble protein abundance (concentration: 1mM)?
Answer: The NP40-soluble protein abundance was 1.05 ± 0.091.

Question: And the NP40-soluble protein abundance (concentration: 2mM)?
Answer: The NP40-soluble protein abundance was 1.03 ± 0.11.

Question: What about the NP40-soluble protein abundance (concentration: 4mM) of the same target?
Answer: The NP40-soluble protein abundance was 1 ± 0.14.

Question: And the NP40-soluble protein abundance (concentration: 6mM)?
Answer: The NP40-soluble protein abundance was 0.989 ± 0.13.

Question: What about the NP40-soluble protein abundance (concentration: 8mM) of the same target?
Answer: The NP40-soluble protein abundance was 1.01 ± 0.12.

Question: What about the NP40-soluble protein abundance (concentration: 10mM) of the same target?
Answer: Its NP40-soluble protein abundance is 0.981 ± 0.13.

Question: “H0YH87 and related entries (UniProt Q99700)” was tested. Which NP40-soluble protein abundance (concentration: 0.1mM) did it give?
Answer: The NP40-soluble protein abundance was 1 ± 0.047.

Question: What about the NP40-soluble protein abundance (concentration: 0.5mM) of the same target?
Answer: The NP40-soluble protein abundance was 0.972 ± 0.041.

Question: What about the NP40-soluble protein abundance (concentration: 1mM) of the same target?
Answer: Its NP40-soluble protein abundance is 1.08 ± 0.046.

Question: And the NP40-soluble protein abundance (concentration: 2mM)?
Answer: The NP40-soluble protein abundance was 1.08 ± 0.034.

Question: What about the NP40-soluble protein abundance (concentration: 4mM) of the same target?
Answer: The NP40-soluble protein abundance was 1.11 ± 0.023.

Question: And the NP40-soluble protein abundance (concentration: 6mM)?
Answer: The NP40-soluble protein abundance was 1.12 ± 0.02.

Question: And the NP40-soluble protein abundance (concentration: 8mM)?
Answer: Its NP40-soluble protein abundance is 1.11 ± 0.043.

Question: And the NP40-soluble protein abundance (concentration: 10mM)?
Answer: Its NP40-soluble protein abundance is 1.2 ± 0.071.

Question: Which results are given for “H0YAA3 and related entries (UniProt Q9HAD4)”?
Answer: NP40-soluble protein abundance (concentration: 0.1mM): 1.2 ± 0.11; NP40-soluble protein abundance (concentration: 0.5mM): 1.06 ± 0.26; NP40-soluble protein abundance (concentration: 1mM): 1.03 ± 0.2; NP40-soluble protein abundance (concentration: 2mM): 0.971 ± 0.17; NP40-soluble protein abundance (concentration: 4mM): 1 ± 0.048; NP40-soluble protein abundance (concentration: 6mM): 0.949 ± 0.079; NP40-soluble protein abundance (concentration: 8mM): 0.891 ± 0.11; NP40-soluble protein abundance (concentration: 10mM): 0.966 ± 0.066
